Measurements reported in patent publication US11957762B2, “Immune tolerant and non-immune tolerant elastin-like recombinant peptides and methods of use” (University of Utah Research Foundation, priority 2015, dated 2024).
Some results were stated once for a whole list of compounds, not compound by compound.

System: C57BL/6 mice
Experiment: Humoral immunogenicity: IgG titers by ELISA in sera of immunized mice
Assay type: in vivo
Settings: mice immunized twice, 100 μg/mouse; sera 1 week after second immunization
Description: Immunization of iTEPs and collection of immune sera. C57BL/6 mice were immunized twice at their right hocks with iTEPs at a dose of 100 μg/mouse. […] At 1 week after the second immunization, 100 μL blood was collected from each immunized mouse. The blood samples were allowed to sit for 30 minutes to one hour at room temperature to clot. Sera were collected from the blood samples after the samples were spun for 10 min at 14,000 rpm at 4° C. The sera were kept at −80° C. before an analysis of the titers of iTEP-specific IgG.
Determination of IgG titers by ELISA. […] Plates were read at OD 450 nm (minus 570 nm for wavelength correction).
The end point titer of a serum IgG was defined as the reciprocal of the higher serum dilution which OD value from the ELISA assay is higher than a statistically valid cutoff. The titer results were expressed as IgG titers (Log 10) for each sample. […] The value of the cutoff was calculated using the following equation:^(31) Cutoff=X+SD t√{square root over (1+(1/n))} where X is the mean absorbance readings of independent PBS control sera, SD is the standard deviation of the readings, n is the number of independent PBS controls (mouse samples), t is the (1−α)th percentile of the one-tailed t-distribution with v=n−1 degrees of freedom.

G(VPGLGAGAG)96GG [iTEPD]
median antibody titer (IgG): less than or equal to 100
